The match of structure and compound is tentative.
Assays:
B-RAF V600E = B-RAF V600E (Homo sapiens, UniProt P15056, V600E); experiment: Target protein degradation, assay C: T-Rex 293 cells, HA-BRAF_V600E, 384 well format; details: for B-RAF V600E DMax (%): T-Rex 293 HA-BRAF_V600E cells, 24 hours, Examples 83-269; for DC50: read-out: B-RAF V600E DC50, T-Rex 293 HA-BRAF_V600E cells, 24 hours, Examples 83-269
Protocol: C. T-Rex 293 Cells (384 Well Format)
(§1) T-Rex 293 cells were purchased from Invitrogen (#R71007), and stably transfected with a pcDNA4/TO_HA-BRAF_V600E construct, using 400 ug Zeocin for selection. V600E cells are plated in DMEM media (Gibco #11965118) containing 10% FBS (Gibco #16000044), 1% penicillin-streptomycin (ThermoFisher #15140122), 1:250 zeocin (Invitrogen #R-25005), and 1 ng/mL doxycycline (Selleckchem #4163) at a density of 7,500 cells/well in 45 μl on PDL coated, black clear bottom 384 well plates (Corning #354663) and incubated at 37° C.+5% CO2 for 24 hours. The following day, PROTAC compounds in a 1:3 11 point dilution are diluted into DMEM media using an Agilent Bravo. 5 ul of PROTACs suspended in DMEM media are added to the cells, with a final assay concentration ranging from 300 nM to 5 pM in 0.5% DMSO. Plates are incubated at 37° C.+5% CO2 for 24 hours. At the end of treatment, media is aspirated, and cells are fixed in 50 uL 4% PFA (EMS #15710) in PBS++(PBS, 1 mM CaCl, 1 mM MgCl) at RT for 15 minutes. Cells are washed 2× with 60 uL PBS++ and permeabilized in 50 uL 1% Triton X-100 (Sigma #93443) in PBS++ for 5 minutes at RT. Cells are washed in PBS++ prior to blocking with 50 uL Licor blocking buffer (Licor #927-60001) for 1 hour at RT. HA-tagged BRAF was stained using 50 uL HA antibody (CST #3724) at 1:1000 in Licor blocking buffer for two hours at RT. Primary is aspirated before adding 50 ul of secondary antibody solution containing 1:1000 Hoechst (ThermoFisher #62249), 1:1000 HCS CellMask Deep Red Stain (ThermoFisher #H32721), and 1:5000 goat anti-rabbit IgG Alexa-Fluor 488 (ThermoFisher #A32731) in PBS++ for 1 hr at RT. Plates are washed 4× with 60 uL PBS++, then sealed with Adhesive Black Light Absorbing Film (VWR #89087-692) and imaged on the ThermoFisher CX7 PRO high content instrument. BRAF intensity is quantified in HCS Studio software (ThermoFisher), using a custom script, exported, analyzed using KNIME, and curve curation is performed in an ELN (Scilligence). Cell toxicity is measured via comparing number of nuclei in PROTAC treated wells to DMSO controls.
(§2) The concentration of an exemplary compound that leads to half maximal degradation (DC50) as well as the maximum degradation observed (Dmax, conventionally expressed as a percentage of control) is shown below in Table 2.

Protein sequences, listed by entry. Tags and fused reporters are not part of them.
UniProt P15056, whole entry G466V: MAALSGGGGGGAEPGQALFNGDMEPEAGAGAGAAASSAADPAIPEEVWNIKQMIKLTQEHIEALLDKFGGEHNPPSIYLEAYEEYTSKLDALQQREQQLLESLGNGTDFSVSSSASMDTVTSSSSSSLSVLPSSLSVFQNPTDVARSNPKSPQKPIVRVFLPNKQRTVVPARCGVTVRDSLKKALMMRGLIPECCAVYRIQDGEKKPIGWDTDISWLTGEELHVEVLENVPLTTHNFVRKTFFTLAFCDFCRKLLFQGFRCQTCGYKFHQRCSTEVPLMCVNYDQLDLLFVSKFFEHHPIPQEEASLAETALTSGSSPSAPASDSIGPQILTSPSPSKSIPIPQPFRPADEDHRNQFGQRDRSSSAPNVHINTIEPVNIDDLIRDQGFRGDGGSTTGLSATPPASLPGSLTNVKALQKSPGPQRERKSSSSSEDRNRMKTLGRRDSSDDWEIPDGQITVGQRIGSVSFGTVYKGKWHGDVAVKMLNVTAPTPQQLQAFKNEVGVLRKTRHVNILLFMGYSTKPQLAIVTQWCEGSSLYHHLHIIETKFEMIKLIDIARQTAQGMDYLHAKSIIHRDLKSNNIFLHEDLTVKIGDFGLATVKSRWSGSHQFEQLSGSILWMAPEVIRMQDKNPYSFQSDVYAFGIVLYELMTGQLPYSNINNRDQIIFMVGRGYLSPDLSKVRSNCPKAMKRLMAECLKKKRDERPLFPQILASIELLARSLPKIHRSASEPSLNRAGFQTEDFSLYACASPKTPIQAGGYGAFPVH
UniProt P15056, whole entry V600E: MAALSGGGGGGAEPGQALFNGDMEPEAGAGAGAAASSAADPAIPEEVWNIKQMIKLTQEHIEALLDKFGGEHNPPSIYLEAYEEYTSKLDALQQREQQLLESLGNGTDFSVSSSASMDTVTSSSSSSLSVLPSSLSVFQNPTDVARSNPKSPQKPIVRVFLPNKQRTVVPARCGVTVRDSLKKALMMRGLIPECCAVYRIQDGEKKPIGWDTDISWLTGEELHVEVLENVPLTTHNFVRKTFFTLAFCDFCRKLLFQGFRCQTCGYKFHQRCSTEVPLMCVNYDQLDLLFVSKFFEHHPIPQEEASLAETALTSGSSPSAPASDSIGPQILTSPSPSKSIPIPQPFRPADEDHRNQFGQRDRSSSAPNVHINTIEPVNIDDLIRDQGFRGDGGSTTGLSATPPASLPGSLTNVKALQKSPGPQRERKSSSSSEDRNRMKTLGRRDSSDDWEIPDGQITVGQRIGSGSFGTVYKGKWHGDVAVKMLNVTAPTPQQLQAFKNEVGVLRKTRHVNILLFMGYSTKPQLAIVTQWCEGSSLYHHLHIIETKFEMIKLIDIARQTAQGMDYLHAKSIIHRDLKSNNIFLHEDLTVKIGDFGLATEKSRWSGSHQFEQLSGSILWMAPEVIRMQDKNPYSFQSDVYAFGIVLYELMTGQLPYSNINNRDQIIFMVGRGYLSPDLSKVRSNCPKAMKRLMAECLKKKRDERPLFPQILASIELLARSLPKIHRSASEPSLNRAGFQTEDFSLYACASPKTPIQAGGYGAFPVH

B-RAF G466V = B-RAF G466V (Homo sapiens, UniProt P15056, G466V); experiment: Target protein degradation, assay D: T-Rex 293 cells, HA-BRAF_G466V, 384 well format; details: for B-RAF G466V DMax (%): T-Rex 293 HA-BRAF_G466V cells, 24 hours, Examples 83-269; for DC50: read-out: B-RAF G466V DC50, T-Rex 293 HA-BRAF_G466V cells, 24 hours, Examples 83-269
Protocol: D. T-Rex 293 Cells (384 Well Format)
as §1, with “pcDNA4/TO_HA-BRAF_G466V” for “pcDNA4/TO_HA-BRAF_V600E”, “G466V” for “V600E”
as §2

N#Cc1c(NS(=O)(=O)N2CC[C@@H](F)C2)ccc(F)c1Oc1ccc2ncn(-c3cccc(N4CCC(CN5CCN(c6ccc7c(c6)CN([C@H]6CCC(=O)NC6=O)C7=O)CC5)C4)c3)c(=O)c2c1 (some centres unmarked)
B-RAF V600E DMax (%) (B-RAF V600E): B (35 < B < 70) | DC50 (B-RAF V600E): 50 to 500 nM | B-RAF G466V DMax (%) (B-RAF G466V): B (35 < B < 70) | DC50 (B-RAF G466V): 10 to 30 nM

N#Cc1c(NS(=O)(=O)N2CC[C@@H](F)C2)ccc(F)c1Oc1ccc2ncn(-c3cccc(N4CCC(CN5CCC(c6ccc7c(c6)CN([C@H]6CCC(=O)NC6=O)C7=O)CC5)C4)c3)c(=O)c2c1 (some centres unmarked)
B-RAF V600E DMax (%) (B-RAF V600E): C (C ≤ 35) | DC50 (B-RAF V600E): 50 to 500 nM | B-RAF G466V DMax (%) (B-RAF G466V): B (35 < B < 70) | DC50 (B-RAF G466V): 1 to 10 nM
